{"sequences": {"note": "Amino acid sequences for entries named in this document (tags omitted). A change or cut given only in a name is not applied to a line headed by its entry.", "UniProt P32773": "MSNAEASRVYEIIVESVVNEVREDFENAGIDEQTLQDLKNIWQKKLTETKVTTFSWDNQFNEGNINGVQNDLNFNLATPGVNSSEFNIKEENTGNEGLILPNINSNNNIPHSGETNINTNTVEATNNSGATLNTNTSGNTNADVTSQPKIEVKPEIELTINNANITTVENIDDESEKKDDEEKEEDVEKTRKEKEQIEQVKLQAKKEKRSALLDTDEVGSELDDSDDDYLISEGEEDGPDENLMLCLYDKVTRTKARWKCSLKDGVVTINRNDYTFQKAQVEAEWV"}, "source": "paper PMC10716077", "key": {"[1]": {"molecular_target": "T1, GST–Ino2 TAD1 (aa 1–35) (S. cerevisiae) (UniProt P26798)", "T1 sequence": "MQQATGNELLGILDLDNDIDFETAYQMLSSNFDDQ", "assay": "pull-down; GST fusions (from E. coli) immobilized on GSH sepharose, incubated with total protein extract from E. coli containing the HA fusion; washed twice with buffer A1, eluted with free GSH; anti-HA blot; only the target purified"}, "[2]": {"molecular_target": "T2, GST–Ino2 TAD2 (aa 101–135) (S. cerevisiae) (UniProt P26798)", "T2 sequence": "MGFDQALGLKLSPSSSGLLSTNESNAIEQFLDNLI", "assay": "pull-down; GST fusions (from E. coli) immobilized on GSH sepharose, incubated with total protein extract from E. coli containing the HA fusion; washed twice with buffer A1, eluted with free GSH; anti-HA blot; only the target purified"}}, "note": "Results are given in words; binding and its absence hold for the method and conditions named. Binding seen in cells or lysates may run through a third protein. A result given as binding can be weak or reduced; the word gives no strength. Sequences can lack the tags named with a protein."}
{"substance": "Toa1 ABD2 (aa 210–286) L263A K264A (from UniProt P32773) (domain or fragment)", "values": [{"measurement": "binding", "setting": "[1]", "result": "binds"}, {"measurement": "binding", "setting": "[2]", "result": "binds"}]}
